Source: the supplement of paper PMC12350171
Counter-ions that a name gives are not always drawn. What follows is the remainder of the data, with few or none of the hits.

Tests used:
Conditions in all cases: 20 µM
[1] = system: Salmonella enterica typhimurium; test: growth AUC normalised to DMSO control (fraction of control); higher = less growth inhibition, active = hit call of the paper
In short: (§1)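 Hemin and NAD were added to the medium for Haemophilus parainfluenzae. All pathogens, after two anaerobic passages, were inoculated at a starting OD578 of 0.01 into pre-reduced mGAM plates with 20 μM compound and 1% DMSO under breathable seals, and OD578 was read hourly for 24 h in three biological replicates. AUC of each growth curve was obtained with the trapezoidal rule up to the exponential-to-stationary transition and normalised to DMSO controls from the same plate.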

Shigella flexneri = test: as above
In short: as §1

Vibrio cholerae = test: as above
In short: as §1

[2] = system: Yersinia pseudotuberculosis; test: as above
In short: as §1

P. vulgatus RND KO = test: growth AUC normalised to DMSO control (median) (fraction of control); higher = less growth inhibition, active = hit call of the paper
In short: (§2)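 Each strain went through two overnight passages under anaerobic conditions before growth in mGAM in 96-well plates, starting at OD578 0.01, with each compound from the approved-drug library at 20 μM and 1% DMSO. Inside an anaerobic incubator, OD578 was recorded every hour for 24 h. Growth curves were cut off at entry into stationary phase, and the area under the curve was calculated by the trapezoidal rule and normalised to vehicle wells on the same plate. Reported values are medians of three biological replicates.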

P. vulgatus WT = test: as above
In short: as §2

[3] = system: S. enterica typhimurium WT; test: as above
In short: as §2

[4] = system: S. enterica typhimurium tolC KO; test: as above
In short: as §2

Measured: growth AUC normalised to DMSO control
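For growth AUC normalised to DMSO control (median) in this document: active when median AUC fell below 0.1.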

CN1[C@@H]2CC[C@H]1CC(OC(=O)C(O)c1ccccc1)C2 (mixture of isomers) [(R,S) Homatropine hydrobromide]
inactive: [1] 1.01 | Shigella flexneri 1 | Vibrio cholerae 1.01 | [2] 1.01 | P. vulgatus RND KO 0.998 | P. vulgatus WT 0.997 | [3] 1.02 | [4] 1.01

CCC(C)C(C(=O)OCC[N+](C)(CC)CC)c1ccccc1 (configuration not stated) [Valethamate bromide]
inactive: P. vulgatus RND KO 0.997 | P. vulgatus WT 0.987 | [3] 1.01 | [4] 0.989
